Assay results published in the supplement of paper PMC10849652.
Some of the results follow.

By UniProt entry, the sequences of proteins in these tests, tags left out. Where a name states a change or a piece, a line headed by the entry shows the natural chain unless it says otherwise.
UniProt Q9HCU9: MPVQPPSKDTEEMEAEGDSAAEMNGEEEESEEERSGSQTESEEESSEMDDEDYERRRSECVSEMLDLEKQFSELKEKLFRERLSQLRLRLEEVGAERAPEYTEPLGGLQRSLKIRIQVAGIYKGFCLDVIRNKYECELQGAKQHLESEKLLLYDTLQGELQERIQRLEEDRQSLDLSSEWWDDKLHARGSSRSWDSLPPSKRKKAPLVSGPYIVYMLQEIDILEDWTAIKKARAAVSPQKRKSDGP
UniProt Q9NZS9: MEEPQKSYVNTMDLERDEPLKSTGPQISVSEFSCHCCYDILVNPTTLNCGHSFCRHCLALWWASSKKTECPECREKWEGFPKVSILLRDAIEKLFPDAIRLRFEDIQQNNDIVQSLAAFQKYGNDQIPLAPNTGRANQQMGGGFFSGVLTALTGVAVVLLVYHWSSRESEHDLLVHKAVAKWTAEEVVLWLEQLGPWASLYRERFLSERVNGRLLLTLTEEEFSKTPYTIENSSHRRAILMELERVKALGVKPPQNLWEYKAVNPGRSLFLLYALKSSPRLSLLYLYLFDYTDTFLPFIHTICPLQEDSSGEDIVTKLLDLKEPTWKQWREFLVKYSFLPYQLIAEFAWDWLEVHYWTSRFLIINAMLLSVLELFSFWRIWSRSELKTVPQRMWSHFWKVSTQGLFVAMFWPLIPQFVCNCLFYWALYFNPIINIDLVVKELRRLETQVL
UniProt O00512: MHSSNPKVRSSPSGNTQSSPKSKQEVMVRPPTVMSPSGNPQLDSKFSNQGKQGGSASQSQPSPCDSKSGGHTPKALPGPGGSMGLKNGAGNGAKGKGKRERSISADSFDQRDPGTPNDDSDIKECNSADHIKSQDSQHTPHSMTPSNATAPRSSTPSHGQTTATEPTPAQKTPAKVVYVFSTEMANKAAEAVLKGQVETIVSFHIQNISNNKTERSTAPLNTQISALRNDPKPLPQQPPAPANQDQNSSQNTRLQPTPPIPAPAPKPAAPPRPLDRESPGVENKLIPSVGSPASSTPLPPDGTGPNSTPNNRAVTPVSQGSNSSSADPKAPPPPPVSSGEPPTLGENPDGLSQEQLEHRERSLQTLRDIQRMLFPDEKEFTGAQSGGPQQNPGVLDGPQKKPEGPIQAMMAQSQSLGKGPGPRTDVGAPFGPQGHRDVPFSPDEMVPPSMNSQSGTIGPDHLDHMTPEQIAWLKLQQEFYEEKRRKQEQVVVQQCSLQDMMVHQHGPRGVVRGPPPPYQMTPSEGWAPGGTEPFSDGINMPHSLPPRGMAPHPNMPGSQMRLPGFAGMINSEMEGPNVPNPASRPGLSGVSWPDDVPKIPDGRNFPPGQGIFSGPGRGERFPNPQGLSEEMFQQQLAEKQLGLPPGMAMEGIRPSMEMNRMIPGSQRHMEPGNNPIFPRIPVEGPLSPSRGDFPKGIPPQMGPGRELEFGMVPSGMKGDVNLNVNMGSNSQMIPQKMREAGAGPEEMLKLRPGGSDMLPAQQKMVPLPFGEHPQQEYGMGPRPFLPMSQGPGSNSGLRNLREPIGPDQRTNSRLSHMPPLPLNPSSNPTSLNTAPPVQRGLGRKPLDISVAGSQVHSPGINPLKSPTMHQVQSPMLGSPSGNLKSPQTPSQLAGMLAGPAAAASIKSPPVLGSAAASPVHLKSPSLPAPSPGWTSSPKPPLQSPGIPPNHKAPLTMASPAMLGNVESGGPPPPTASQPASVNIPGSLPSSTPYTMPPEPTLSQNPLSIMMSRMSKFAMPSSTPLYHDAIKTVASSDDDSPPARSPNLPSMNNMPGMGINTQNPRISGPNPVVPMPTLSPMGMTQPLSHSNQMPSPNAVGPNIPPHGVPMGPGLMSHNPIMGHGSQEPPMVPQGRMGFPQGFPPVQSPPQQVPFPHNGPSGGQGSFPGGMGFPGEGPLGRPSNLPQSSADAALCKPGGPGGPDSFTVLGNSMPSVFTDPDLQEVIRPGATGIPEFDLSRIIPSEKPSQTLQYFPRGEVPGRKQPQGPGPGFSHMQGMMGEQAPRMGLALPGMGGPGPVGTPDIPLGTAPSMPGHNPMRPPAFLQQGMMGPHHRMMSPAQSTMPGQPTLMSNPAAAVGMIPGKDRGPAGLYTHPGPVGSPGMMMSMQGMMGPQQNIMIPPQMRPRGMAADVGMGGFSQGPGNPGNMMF
UniProt Q9NYM9: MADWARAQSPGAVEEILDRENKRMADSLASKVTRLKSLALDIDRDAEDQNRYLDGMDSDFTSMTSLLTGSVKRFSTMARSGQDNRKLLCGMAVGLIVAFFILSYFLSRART
UniProt Q5T6C5: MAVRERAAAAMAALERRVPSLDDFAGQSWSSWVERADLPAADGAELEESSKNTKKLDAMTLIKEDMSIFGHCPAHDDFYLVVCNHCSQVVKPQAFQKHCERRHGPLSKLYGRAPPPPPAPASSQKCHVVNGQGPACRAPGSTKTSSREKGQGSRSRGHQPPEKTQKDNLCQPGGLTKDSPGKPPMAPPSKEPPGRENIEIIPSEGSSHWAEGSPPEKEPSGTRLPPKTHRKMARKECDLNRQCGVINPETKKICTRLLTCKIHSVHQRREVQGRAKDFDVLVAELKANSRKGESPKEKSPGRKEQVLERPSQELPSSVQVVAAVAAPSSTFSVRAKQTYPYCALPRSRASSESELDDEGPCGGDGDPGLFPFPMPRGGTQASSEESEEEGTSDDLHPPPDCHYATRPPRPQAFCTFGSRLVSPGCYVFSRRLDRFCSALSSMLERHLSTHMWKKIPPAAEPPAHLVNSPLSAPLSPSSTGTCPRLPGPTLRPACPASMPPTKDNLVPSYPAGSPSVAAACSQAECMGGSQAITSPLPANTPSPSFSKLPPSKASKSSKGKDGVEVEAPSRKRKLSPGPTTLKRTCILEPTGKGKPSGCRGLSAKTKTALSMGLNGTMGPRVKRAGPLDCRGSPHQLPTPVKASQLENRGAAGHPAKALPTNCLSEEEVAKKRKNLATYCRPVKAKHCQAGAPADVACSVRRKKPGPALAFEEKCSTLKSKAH
UniProt Q4VC05, whole entry, looked up: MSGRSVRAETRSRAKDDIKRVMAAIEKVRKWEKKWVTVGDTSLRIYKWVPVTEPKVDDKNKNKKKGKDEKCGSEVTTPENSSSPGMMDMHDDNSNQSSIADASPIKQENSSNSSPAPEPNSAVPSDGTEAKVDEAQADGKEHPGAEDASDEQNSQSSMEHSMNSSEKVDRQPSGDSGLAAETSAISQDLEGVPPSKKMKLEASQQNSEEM
UniProt O43521, whole entry, looked up: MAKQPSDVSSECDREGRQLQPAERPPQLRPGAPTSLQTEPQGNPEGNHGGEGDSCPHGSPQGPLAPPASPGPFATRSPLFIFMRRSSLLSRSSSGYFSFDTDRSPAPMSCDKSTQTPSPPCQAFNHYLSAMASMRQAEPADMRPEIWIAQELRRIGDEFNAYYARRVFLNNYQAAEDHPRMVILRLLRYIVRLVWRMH
UniProt Q96GD4, whole entry, looked up: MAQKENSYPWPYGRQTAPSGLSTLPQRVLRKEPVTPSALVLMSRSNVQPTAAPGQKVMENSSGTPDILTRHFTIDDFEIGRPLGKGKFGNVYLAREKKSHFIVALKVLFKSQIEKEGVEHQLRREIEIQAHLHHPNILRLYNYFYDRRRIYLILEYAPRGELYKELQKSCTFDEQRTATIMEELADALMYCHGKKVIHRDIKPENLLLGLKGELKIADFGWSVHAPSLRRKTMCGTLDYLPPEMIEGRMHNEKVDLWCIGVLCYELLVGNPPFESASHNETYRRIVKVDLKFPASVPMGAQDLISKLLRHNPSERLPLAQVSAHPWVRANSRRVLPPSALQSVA
UniProt Q96FH0: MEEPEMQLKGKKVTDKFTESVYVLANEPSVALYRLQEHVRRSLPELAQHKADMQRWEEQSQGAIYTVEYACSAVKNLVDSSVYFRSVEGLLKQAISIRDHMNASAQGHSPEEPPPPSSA
UniProt Q8TDL5: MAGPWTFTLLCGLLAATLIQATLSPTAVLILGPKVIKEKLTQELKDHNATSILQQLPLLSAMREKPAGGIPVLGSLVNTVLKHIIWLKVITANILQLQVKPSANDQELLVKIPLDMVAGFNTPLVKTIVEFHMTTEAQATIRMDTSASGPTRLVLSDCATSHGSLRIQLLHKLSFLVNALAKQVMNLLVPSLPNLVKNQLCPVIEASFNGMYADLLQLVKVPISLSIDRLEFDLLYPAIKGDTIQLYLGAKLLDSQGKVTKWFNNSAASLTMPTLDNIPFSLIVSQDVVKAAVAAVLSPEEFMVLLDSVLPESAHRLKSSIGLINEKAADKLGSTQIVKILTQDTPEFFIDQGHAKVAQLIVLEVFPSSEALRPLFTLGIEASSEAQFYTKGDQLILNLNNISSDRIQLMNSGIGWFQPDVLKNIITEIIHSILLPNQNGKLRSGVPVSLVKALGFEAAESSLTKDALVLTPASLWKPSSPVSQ
UniProt Q8TBE0: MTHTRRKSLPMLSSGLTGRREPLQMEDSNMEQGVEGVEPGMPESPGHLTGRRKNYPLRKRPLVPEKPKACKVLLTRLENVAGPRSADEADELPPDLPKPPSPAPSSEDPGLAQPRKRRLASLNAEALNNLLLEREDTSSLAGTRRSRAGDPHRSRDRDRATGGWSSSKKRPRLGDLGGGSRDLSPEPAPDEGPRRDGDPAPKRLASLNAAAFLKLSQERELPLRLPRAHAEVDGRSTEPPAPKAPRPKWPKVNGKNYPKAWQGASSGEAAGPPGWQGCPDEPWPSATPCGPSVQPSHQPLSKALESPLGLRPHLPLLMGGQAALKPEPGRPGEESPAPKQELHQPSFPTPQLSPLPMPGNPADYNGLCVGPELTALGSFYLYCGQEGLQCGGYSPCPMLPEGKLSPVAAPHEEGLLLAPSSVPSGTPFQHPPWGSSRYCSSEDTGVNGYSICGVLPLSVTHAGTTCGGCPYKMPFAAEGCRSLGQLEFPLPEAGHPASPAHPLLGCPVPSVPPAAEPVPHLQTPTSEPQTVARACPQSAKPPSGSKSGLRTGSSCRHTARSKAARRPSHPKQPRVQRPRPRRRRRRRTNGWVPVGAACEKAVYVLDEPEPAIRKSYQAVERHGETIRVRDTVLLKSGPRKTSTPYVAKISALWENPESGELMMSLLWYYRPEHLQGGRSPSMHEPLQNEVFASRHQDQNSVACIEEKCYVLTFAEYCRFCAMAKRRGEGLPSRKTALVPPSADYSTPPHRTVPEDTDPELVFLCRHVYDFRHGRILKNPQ
UniProt Q9UIG0: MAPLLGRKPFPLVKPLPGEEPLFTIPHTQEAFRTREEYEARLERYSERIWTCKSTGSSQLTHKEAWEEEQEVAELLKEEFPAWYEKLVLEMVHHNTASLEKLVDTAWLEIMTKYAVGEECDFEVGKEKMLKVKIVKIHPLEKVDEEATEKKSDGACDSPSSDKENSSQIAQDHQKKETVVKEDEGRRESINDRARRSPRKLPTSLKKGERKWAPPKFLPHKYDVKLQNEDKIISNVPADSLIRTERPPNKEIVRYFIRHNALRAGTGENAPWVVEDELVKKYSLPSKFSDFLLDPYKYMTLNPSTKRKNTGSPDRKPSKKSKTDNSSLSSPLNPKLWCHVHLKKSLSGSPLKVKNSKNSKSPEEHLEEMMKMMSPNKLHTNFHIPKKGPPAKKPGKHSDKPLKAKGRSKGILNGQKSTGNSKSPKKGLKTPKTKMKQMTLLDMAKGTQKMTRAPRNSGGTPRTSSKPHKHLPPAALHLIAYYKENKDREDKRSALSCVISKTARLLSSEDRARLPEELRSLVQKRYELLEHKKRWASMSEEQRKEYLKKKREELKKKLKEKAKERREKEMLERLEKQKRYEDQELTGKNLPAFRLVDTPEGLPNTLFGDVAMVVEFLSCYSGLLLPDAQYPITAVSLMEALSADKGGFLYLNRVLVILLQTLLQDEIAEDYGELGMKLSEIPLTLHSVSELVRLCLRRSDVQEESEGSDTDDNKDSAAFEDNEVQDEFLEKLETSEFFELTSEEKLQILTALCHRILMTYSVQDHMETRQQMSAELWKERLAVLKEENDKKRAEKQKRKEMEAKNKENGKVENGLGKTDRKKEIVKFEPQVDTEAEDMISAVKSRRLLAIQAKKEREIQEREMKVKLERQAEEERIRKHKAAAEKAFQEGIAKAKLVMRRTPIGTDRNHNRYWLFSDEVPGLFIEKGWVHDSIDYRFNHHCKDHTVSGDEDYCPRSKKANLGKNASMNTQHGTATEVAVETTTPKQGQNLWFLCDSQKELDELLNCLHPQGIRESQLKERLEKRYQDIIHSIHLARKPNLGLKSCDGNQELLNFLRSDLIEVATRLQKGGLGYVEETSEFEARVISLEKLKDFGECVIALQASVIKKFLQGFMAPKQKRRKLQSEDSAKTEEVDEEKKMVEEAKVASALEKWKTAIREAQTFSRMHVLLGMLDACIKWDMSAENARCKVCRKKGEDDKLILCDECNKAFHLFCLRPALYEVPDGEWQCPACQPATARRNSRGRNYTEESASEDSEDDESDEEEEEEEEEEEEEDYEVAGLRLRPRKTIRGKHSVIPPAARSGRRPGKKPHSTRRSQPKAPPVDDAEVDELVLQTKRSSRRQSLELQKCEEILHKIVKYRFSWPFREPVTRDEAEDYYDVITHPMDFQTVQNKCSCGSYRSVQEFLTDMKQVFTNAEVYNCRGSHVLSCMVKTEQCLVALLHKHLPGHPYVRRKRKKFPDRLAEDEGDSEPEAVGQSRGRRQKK

compound: O=C1NC(=O)C(c2cnc3ccccn23)=C1c1cn2c3c(cc(F)cc13)CN(C(=O)N1CCCCC1)CC2; test: log2 fold change, soluble protein after heating vs DMSO (PISA); higher = thermal stabilisation; K562 cells, 10 uM, 30 min; active = over 0.2 and 3.5 SD of the protein, either way, in both replicates (recomputed)
In short: (§1)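 Soluble protein was quantified by TMTpro 16plex LC-MS/MS after channel sums were equalised. It was obtained as the supernatant after 21,000xg for 90 min from pooled aliquots of K562 cells (2×10^6 cells/mL, 10 μM compound, 30 min) heated for 3 min across 48°C-58°C and extracted in PBS with 0.5% NP-40 at 4°C. Thermal stability values are relative to control samples and come from duplicates. They are given as log2 fold changes.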

log2 fold change, inactive:
BPTF (UniProt Q12830) 0.053
BRMS1 (UniProt Q9HCU9) -0.033
BFAR (UniProt Q9NZS9) -0.008
BCL9 (UniProt O00512) -0.149
BET1L (UniProt Q9NYM9) -0.028
AURKAIP1 (UniProt Q9NWT8) 0.339
ATXN7L2 (UniProt Q5T6C5) 0.026
BCL7A isoform 2 (UniProt Q4VC05) 0.107
BCL2L11 (UniProt O43521) -0.016

compound: c1cc(OCCN2CCCCC2)cc(-c2n[nH]c3ccc(-c4nnc[nH]4)cc23)c1; test: as above
In short: as §1

log2 fold change, inactive:
AURKB isoform 5 (UniProt Q96GD4) 0.137
BRMS1 (UniProt Q9HCU9) -0.178
BORCS8 (UniProt Q96FH0) 0.002
BCL9 (UniProt O00512) 0.03
BET1L (UniProt Q9NYM9) 0.052
AURKAIP1 (UniProt Q9NWT8) -0.156
BNIP3L (UniProt O60238) -0.012
BPIFB1 (UniProt Q8TDL5) -0.141
BCL7A isoform 2 (UniProt Q4VC05) -0.114
BAHD1 (UniProt Q8TBE0) -0.075
BCAS3 isoform 8 (UniProt Q9H6U6) -0.199
BAZ1B (UniProt Q9UIG0) -0.028
BCL2L11 (UniProt O43521) 0.141
ATXN2 (UniProt F8W0B5) -0.094
